According to paper PMC6538746, “Rice transcription factor OsMADS57 regulates plant height by modulating gibberellin catabolism”:
These are yes or no findings as the source states them, for the method shown.

Amino acid sequences for entries named in this document (tags omitted).
UniProt Q6Z6W2: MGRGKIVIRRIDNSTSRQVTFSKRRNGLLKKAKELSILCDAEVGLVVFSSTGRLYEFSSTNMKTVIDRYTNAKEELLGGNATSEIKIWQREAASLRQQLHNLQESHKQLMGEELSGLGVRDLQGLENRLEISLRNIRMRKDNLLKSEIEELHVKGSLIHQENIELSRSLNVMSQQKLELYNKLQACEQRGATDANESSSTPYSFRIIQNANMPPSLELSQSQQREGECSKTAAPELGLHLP

Molecular target: OsMADS57 (rice (Oryza sativa)) (UniProt Q6Z6W2)
Test: two-hybrid; yeast two-hybrid; OsMADS57 in pGBKT7, SLR1 in pGADT7; following the manufacturer's instructions (Clontech)

- binding: no binding
B1: SLENDER1 (SLR1) (protein, UniProt Q7G7J6 1-625)
chain: MKREYQEAGGSSGGGSSADMGSCKDKVMAGAAGEEEDVDELLAALGYKVRSSDMADVAQKLEQLEMAMGMGGVSAPGAADDGFVSHLATDTVHYNPSDLSSWVESMLSELNAPLPPIPPAPPAARHASTSSTVTGGGGSGFFELPAAADSSSSTYALRPISLPVVATADPSAADSARDTKRMRTGGGSTSSSSSSSSSLGGGASRGSVVEAAPPATQGAAAANAPAVPVVVVDTQEAGIRLVHALLACAEAVQQENFAAAEALVKQIPTLAASQGGAMRKVAAYFGEALARRVYRFRPADSTLLDAAFADLLHAHFYESCPYLKFAHFTANQAILEAFAGCHRVHVVDFGIKQGMQWPALLQALALRPGGPPSFRLTGVGPPQPDETDALQQVGWKLAQFAHTIRVDFQYRGLVAATLADLEPFMLQPEGEADANEEPEVIAVNSVFELHRLLAQPGALEKVLGTVHAVRPRIVTVVEQEANHNSGSFLDRFTESLHYYSTMFDSLEGGSSGQAELSPPAAGGGGGTDQVMSEVYLGRQICNVVACEGAERTERHETLGQWRNRLGRAGFEPVHLGSNAYKQASTLLALFAGGDGYRVEEKEGCLTLGWHTRPLIATSAWRVAAA
